Laboratory results taken from publication PMC6194124.
These are yes or no findings as the source states them, for the method shown. Binding seen in cells or lysates may run through a third protein. Some entries that bind do so weakly or less than the wild type. For some assays here: Sequences can lack the tags named with a protein.

Amino acid sequences for entries named in this document (tags omitted). Residues count along the entry.
UniProt Q925U4: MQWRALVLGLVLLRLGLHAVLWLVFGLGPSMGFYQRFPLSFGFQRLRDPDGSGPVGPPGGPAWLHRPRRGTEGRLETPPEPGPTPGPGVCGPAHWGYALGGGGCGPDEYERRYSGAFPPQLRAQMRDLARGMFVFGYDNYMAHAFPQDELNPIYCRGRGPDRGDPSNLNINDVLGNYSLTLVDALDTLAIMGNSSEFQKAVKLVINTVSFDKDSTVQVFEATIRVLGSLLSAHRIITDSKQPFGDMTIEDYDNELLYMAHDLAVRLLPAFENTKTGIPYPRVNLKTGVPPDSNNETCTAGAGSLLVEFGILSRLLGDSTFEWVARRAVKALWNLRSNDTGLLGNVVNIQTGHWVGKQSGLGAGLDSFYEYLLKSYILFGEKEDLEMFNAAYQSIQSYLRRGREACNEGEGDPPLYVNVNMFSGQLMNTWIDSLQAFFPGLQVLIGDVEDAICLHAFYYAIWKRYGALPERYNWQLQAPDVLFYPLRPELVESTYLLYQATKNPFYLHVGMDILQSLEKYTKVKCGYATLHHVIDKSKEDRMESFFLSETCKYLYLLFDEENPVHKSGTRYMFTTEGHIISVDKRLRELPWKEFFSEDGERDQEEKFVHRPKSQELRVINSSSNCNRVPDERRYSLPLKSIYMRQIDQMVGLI
UniProt P07237, residues 18-508: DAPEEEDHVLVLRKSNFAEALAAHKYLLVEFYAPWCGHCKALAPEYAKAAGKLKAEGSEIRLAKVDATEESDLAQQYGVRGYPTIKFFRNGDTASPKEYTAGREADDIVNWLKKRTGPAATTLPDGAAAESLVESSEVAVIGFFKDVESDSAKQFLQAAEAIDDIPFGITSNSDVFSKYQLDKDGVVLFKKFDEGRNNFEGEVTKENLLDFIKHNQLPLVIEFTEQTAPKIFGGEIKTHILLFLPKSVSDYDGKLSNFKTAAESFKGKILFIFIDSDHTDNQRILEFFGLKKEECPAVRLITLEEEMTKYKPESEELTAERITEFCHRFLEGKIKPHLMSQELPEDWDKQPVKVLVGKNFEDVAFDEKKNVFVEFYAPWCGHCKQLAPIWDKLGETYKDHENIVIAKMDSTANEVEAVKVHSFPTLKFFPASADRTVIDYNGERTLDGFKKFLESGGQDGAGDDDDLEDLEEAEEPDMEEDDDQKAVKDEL

Key:
EDEM1-HA = EDEM1-HA (UniProt Q925U4); test: co-IP; HEK 293 cells expressing EDEM1-HA or EDEM2-HA with FLAG-TXNDC11 or FLAG-PDI; lysed in mild conditions (1% NP-40, 50 mM Tris/HCl pH 8, 150 mM NaCl); immunoprecipitated with anti-EDEM1 or anti-EDEM2, immunoblotted with anti-FLAG
EDEM2-HA = target: T1, EDEM2-HA (UniProt Q9BV94); test: as above
T1 sequence: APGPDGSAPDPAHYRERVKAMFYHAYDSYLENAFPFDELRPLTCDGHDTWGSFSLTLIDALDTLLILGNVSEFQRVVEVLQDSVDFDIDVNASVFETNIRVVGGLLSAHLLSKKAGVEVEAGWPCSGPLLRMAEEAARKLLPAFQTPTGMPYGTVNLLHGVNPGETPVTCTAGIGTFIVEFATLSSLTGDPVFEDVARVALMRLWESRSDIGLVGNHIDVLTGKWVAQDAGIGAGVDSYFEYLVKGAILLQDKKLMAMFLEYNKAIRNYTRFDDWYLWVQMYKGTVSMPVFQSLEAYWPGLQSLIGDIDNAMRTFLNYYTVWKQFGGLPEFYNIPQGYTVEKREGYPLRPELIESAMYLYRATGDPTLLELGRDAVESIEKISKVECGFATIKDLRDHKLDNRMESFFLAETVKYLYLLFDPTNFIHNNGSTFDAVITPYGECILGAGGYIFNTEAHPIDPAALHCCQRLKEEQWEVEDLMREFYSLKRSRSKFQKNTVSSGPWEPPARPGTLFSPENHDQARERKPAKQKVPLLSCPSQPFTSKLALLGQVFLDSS

Substance: FLAG-PDI (from UniProt P07237 18-508) (enzyme)
- binding (EDEM1-HA): binds weakly
- binding (EDEM2-HA): binds
